Experimental data: PubChem BioAssay AID248 (DTP/NCI, 2004)
The list does not hold the whole screen: it gathers tests that were run many times, whatever their T/C, doses with no T/C, and many T/C values between a quarter and a half above the control. Further doses and runs are listed elsewhere. T/C: endpoint of the treated group in % of that of the vehicle group. Some entries give survivors of the animals treated and no T/C: the source files T/C as zero there, which appears to mark a toxic dose or a test without result, not a measured value. Some doses without a T/C left all or most animals alive at the check, yet need not have been tolerated: the source hardly ever lists a survival T/C far under the control, and the zero likely stands for such cases as well. Counts of survivors are from the toxicity check (mostly the fifth day) where no day follows; animals may have died later. Schedules are NCI's codes, taken here to give the interval after Q, in days (D) or hours (H), and the number of doses after X. Some schedule codes hold Z or #, which are not explained here. Where survival is the endpoint, this PubChem deposit counts one and a half times the control or more as active, and values a quarter to a half above the control carry no call in these data; other NCI protocols may use other cut-offs.

Test system: L1210 leukemia ip in BDF1 mice, survival T/C
Test: NCI In Vivo Anticancer Drug Screen. Data for tumor model L1210 Leukemia (intraperitoneal) in B6D2F1 (BDF1) mice
Conditions: T/C endpoint: mean survival time, higher T/C = longer survival; for T/C: dose: 140.0 mg/kg/injection
[1] = dose: 200.0 mg/kg/injection, schedule: Q01DX001 (ip), vehicle: saline
[2] = dose: 400.0 mg/kg/injection, schedule: Q01DX001 (ip), vehicle: saline

SMILES: CO[C@@H](C=O)O[C@@H](C=O)CO
- survivor count (dose: 12.5 mg/kg/injection, schedule: Q03HX008 (ip), vehicle: water): 8 of 8
- survivor count (dose: 12.5 mg/kg/injection, schedule: Q03HX016 (ip), vehicle: water): 8 of 8
- survivor count (dose: 12.5 mg/kg/injection, schedule: Q03HX024 (ip), vehicle: water): 8 of 8
- survivor count (dose: 50.0 mg/kg/injection, schedule: Q01DX009 (ip), vehicle: water): 8 of 8
- survivor count (dose: 50.0 mg/kg/injection, schedule: Q01DX009 (sc), vehicle: water): 8 of 8
- survivor count (dose: 50.0 mg/kg/injection, schedule: Q03HX008 (ip), vehicle: water): 6 of 8
- survivor count (dose: 50.0 mg/kg/injection, schedule: Q03HX016 (ip), vehicle: water): 3 of 8
- survivor count (dose: 50.0 mg/kg/injection, schedule: Q03HX024 (ip), vehicle: water): 0 of 8
- survivor count (dose: 50.0 mg/kg/injection, schedule: Q04DX003 (iv), vehicle: water): 8 of 8
- survivor count (dose: 100.0 mg/kg/injection, schedule: Q01DX009 (ip), vehicle: water): 6 of 8
- survivor count (dose: 100.0 mg/kg/injection, schedule: Q01DX009 (oral), vehicle: water): 8 of 8
- survivor count (dose: 100.0 mg/kg/injection, schedule: Q01DX009 (sc), vehicle: water): 8 of 8
- survivor count (dose: 100.0 mg/kg/injection, schedule: Q03HX008 (ip), vehicle: water): 0 of 8
- survivor count (dose: 100.0 mg/kg/injection, schedule: Q03HX016 (ip), vehicle: water): 0 of 8
- survivor count (dose: 100.0 mg/kg/injection, schedule: Q03HX024 (ip), vehicle: water): 0 of 8
- survivor count (dose: 100.0 mg/kg/injection, schedule: Q04DX003 (ip), vehicle: water): 6 of 8
- survivor count (dose: 100.0 mg/kg/injection, schedule: Q04DX003 (iv), vehicle: water): 8 of 8
- survivor count (dose: 100.0 mg/kg/injection, schedule: Q08DX002 (ip), vehicle: water): 8 of 8
- T/C (schedule: Q01DX009 (ip), vehicle: water): 134 % of control
- T/C (schedule: Q01DX Z (ip), vehicle: water): 134 % of control
- survivor count (dose: 200.0 mg/kg/injection, schedule: Q01DX001 (ip), vehicle: water): 2 of 8
- survivor count (dose: 200.0 mg/kg/injection, schedule: Q01DX009 (ip), vehicle: water): 1 of 8
- survivor count (dose: 200.0 mg/kg/injection, schedule: Q01DX009 (oral), vehicle: water): 8 of 8
- survivor count (dose: 200.0 mg/kg/injection, schedule: Q01DX009 (sc), vehicle: water): 6 of 8
- survivor count (dose: 200.0 mg/kg/injection, schedule: Q03HX008 (ip), vehicle: water): 0 of 8
- survivor count (dose: 200.0 mg/kg/injection, schedule: Q03HX016 (ip), vehicle: water): 0 of 8
- survivor count (dose: 200.0 mg/kg/injection, schedule: Q03HX024 (ip), vehicle: water): 0 of 8
- survivor count (dose: 200.0 mg/kg/injection, schedule: Q04DX003 (ip), vehicle: water): 6 of 8
- survivor count (dose: 200.0 mg/kg/injection, schedule: Q04DX003 (iv), vehicle: water): 7 of 8
- survivor count (dose: 200.0 mg/kg/injection, schedule: Q08DX002 (ip), vehicle: water): 7 of 8
- survivor count (dose: 400.0 mg/kg/injection, schedule: Q01DX001 (ip), vehicle: water): 0 of 8
- survivor count (dose: 400.0 mg/kg/injection, schedule: Q01DX009 (ip), vehicle: water): 0 of 8
- survivor count (dose: 400.0 mg/kg/injection, schedule: Q01DX009 (oral), vehicle: water): 8 of 8
- survivor count (dose: 400.0 mg/kg/injection, schedule: Q01DX009 (sc), vehicle: water): 2 of 8
- survivor count (dose: 400.0 mg/kg/injection, schedule: Q04DX003 (ip), vehicle: water): 1 of 8
- survivor count (dose: 400.0 mg/kg/injection, schedule: Q04DX003 (iv), vehicle: water): 7 of 8
- survivor count (dose: 400.0 mg/kg/injection, schedule: Q08DX002 (ip), vehicle: water): 1 of 8
- survivor count (dose: 560.0 mg/kg/injection, schedule: Q01DX009 (ip), vehicle: water): 1 of 8
- survivor count (dose: 560.0 mg/kg/injection, schedule: Q01DX Z (ip), vehicle: water): 0 of 8
- survivor count (dose: 800.0 mg/kg/injection, schedule: Q01DX001 (ip), vehicle: water): 0 of 8
- survivor count (dose: 800.0 mg/kg/injection, schedule: Q01DX009 (oral), vehicle: water): 2 of 8
- survivor count (dose: 800.0 mg/kg/injection, schedule: Q04DX003 (ip), vehicle: water): 0 of 8
- survivor count (dose: 800.0 mg/kg/injection, schedule: Q08DX002 (ip), vehicle: water): 0 of 8

SMILES: C#CC(=O)OC
- survivor count (dose: 12.5 mg/kg/injection, schedule: Q04DX003 (ip), vehicle: saline): 2 of 6
- survivor count (dose: 25.0 mg/kg/injection, schedule: Q04DX003 (ip), vehicle: saline): 1 of 6
- survivor count (dose: 50.0 mg/kg/injection, schedule: Q04DX003 (ip), vehicle: saline): 0 of 6
- survivor count (dose: 100.0 mg/kg/injection, schedule: Q04DX003 (ip), vehicle: saline): 0 of 6
- survivor count (dose: 200.0 mg/kg/injection, schedule: Q04DX003 (ip), vehicle: saline): 0 of 6
- survivor count (dose: 400.0 mg/kg/injection, schedule: Q04DX003 (ip), vehicle: saline): 0 of 6

SMILES: S=c1[nH]ccs1
- survivor count [1]: 0 of 6
- survivor count [2]: 0 of 6

SMILES: OCC1OC(n2cnc3c(Cl)ncnc32)C(O)C1O (configuration not stated)
- survivor count (dose: 62.5 mg/kg/injection, schedule: Q01DX010 (ip), vehicle: saline): 6 of 6

SMILES: COC(=O)C1(C)CCCC2(C)C3CCC4(C)CC3(CCO4)CCC12 (configuration not stated)
- survivor count (dose: 100.0 mg/kg/injection, schedule: Q04DX002 (ip), vehicle: Klucel (hydroxypropylcellulose) (HPC)): 3 of 3

SMILES: O=C1C=C(c2ccccc2)C(c2ccccc2)C1O (configuration not stated)
- survivor count (dose: 300.0 mg/kg/injection, schedule: Q01DX001 (ip), vehicle: other): 2 of 6

SMILES: CC1Nc2ccccc2NC1C (configuration not stated)
- survivor count [1]: 1 of 6
- survivor count [2]: 0 of 6

SMILES: CCOC(=O)C(=O)C(C#N)c1cccc2ccccc12 (configuration not stated)
- survivor count (dose: 400.0 mg/kg/injection, schedule: Q04DX003 (ip), vehicle: Klucel (hydroxypropylcellulose) (HPC)): 1 of 6
